Paper doi:10.1101/2020.03.25.007906 (bioRxiv, 2020)

Target: C-terminal truncated DnaA with histidine tag, in E. coli (Deinococcus radiodurans R1)
Assay: co-IP

B1: recombinant PprA (natural protein, Deinococcus radiodurans, UniProt O32504 1-300, looked up)
chain: MLPLAFLICSGHNKGSMARAKAKDQTDGIYAAFDTLMSTAGVDSQIAALAASEADAGTLDAALTQSLQEAQGRWGLGLHHLRHEARLTDDGDIEILTDGRPSARVSEGFGALAQAYAPMQALDERGLSQWAALGEGYRAPGDLPLAQLKVLIEHARDFETDWSAGRGETFQRVWRKGDTLFVEVARPASAEAALSDAAWDVIASIKDRAFQRELMRRSEKDGMLGALLGARHAGAKANLAQLPEAHFTVQAFVQTLSGAAARNAEEYRAALKTAAAALEEYQGVTTRQLSEVLRHGLRES
**Q.** B1 was tested. Which binding did it give?
**A.** Its binding is “binds”.

Results are given in words; binding and its absence hold for the method and conditions named. In cells and extracts the contact can be indirect. A result given as binding can be weak or reduced; the word gives no strength. Sequences can lack the tags named with a protein.
